About 13,000 (3.2%) of roughly 400,000 compounds were called active. This list was built around the results that the source calls inconclusive (neither active nor inactive); the mix of calls is not that of the screen. Calls follow the shape of the dose curve; as a rule, active = well fitted cell-killing curve with a large enough effect; inconclusive = small, poorly fitted or top-dose-only effect, or effect the other way; inactive = flat fitted curve, though single readings scatter. Potencies beside an inconclusive call are fits to weak or partial responses and may not hold up.
Experiment: qHTS assay for MDR1-selective chemotherapeutics: Primary screen using the drug-selected MDR subline cells KB-V1; also: nearly all actives have a fitted effect of over 60% in size
Details: KB-V1 MDR cells viability, CellTiter-Glo, 72 h; activity change, negative = cytotoxicity: at 46.1 µM (top of the series)
How it was run: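 KB-V1 cells (P-gp-expressing MDR subline of KB-3-1) in phenol-red-free DMEM with 10% FBS were exposed to library compounds over a concentration series for 72 h at 37 degrees C. Viability read by CellTiter-Glo luminescence; concentration-effect curves fitted after normalization.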
In the case of `CCC(C)[C@H]1CNCCN1CCCc1cc(OC)c(OC)c(OC)c1` (some centres undefined), the Potency is reported as “inactive”. For `Cc1ccccc1C(=O)NC1CCN(Cc2nnnn2Cc2ccccc2)CC1`, the Potency was inconclusive: 14.6 µM [cytotoxic, single point]. In the case of `Cc1cc(C)c(C(=O)Cn2nc(C)c([N+](=O)[O-])c2C)cc1C`, the Potency is reported as inconclusive: 9.2 µM [cytotoxic, partial curve, poor fit]. With `COc1ccc(Br)c(C(=O)Nc2cccc(Cl)c2Cl)c1` the Potency was inconclusive: 18.4 µM [rising, partial curve, poor fit]. In the case of `CC(C)N(Cc1ccccc1)C(=O)COC(=O)CCC(=O)c1ccc(F)cc1`, the Potency is reported as inconclusive: 32.6 µM [rising, single point]. In the case of `COC(=O)c1ccccc1NC(=O)C1CCN(c2ncnc3c2nc2n3CCCCC2)CC1`, the Potency is reported as “inactive”. For `O=S(=O)(NC1CCCCC1N1CCN(c2ccc(F)cc2)CC1)c1ccc(Cl)cc1` (centres undefined), the Potency was inconclusive: 29.1 µM [cytotoxic, single point]. With `CCOc1ccc2c(c1)c(=O)c(C(=O)c1ccc(CC)cc1)cn2CC(=O)Nc1ccc2c(c1)OCCO2` the Potency was “inactive”. For `COc1cc(C2C=C(C(=O)O)Nc3ncnn32)ccc1O` (centres undefined), the Potency was inconclusive: 20.6 µM [rising, partial curve]. In the case of `O=C(NCCc1cccc(Cl)c1)c1cccc([N+](=O)[O-])c1`, the Potency is reported as inconclusive: 29.1 µM [cytotoxic, single point]. With `Cn1nnc(NC(=S)NC(=O)c2ccco2)n1` the Potency was “inactive”. For `N#Cc1nc(Nc2cc(F)cc(F)c2)c2ncn(CC(F)F)c2n1`, the Potency was “inactive”. For `O=C(CN1CCc2ccccc21)NC(c1ccccc1)c1ccccc1`, the Potency was inconclusive: 18.4 µM [cytotoxic, single point]. For `CCOC(=O)c1cc(-c2ccc(F)cc2)n(CC(=O)NCc2cccnc2)c1C`, the Potency was inconclusive: 8.2 µM [cytotoxic, partial curve, poor fit]. In the case of `COc1cc(CNc2ccccc2SC)cc(OC)c1OC`, the Potency is reported as inconclusive: 13 µM [cytotoxic, partial curve]. In the case of `CCOC(=O)Nc1ccc2c(c1)N(C(=O)CCN1CCN(C)CC1)c1ccccc1S2`, the Potency is reported as inconclusive: 16.4 µM [cytotoxic, partial curve]. In the case of `CC(=O)Nc1ccc2nc(-c3cccs3)[nH]c2c1`, the Potency is reported as “inactive”. For `CCN(CC)CCOC(=O)c1ccc(NC(=O)CCCN2C(=O)/C(=C/c3cccs3)SC2=S)cc1`, the Potency was inconclusive: 29.1 µM [cytotoxic, single point]. In the case of `O=C(Cc1ccccc1)NN1C(=O)C2C3C=CC(C4CC34)C2C1=O` (centres undefined), the Potency is reported as inconclusive: 20.6 µM [cytotoxic, single point]. In the case of `COc1ccccc1NS(=O)(=O)c1ccc(N/N=C/c2ccccc2OCC(=O)O)c([N+](=O)[O-])c1`, the Potency is reported as “inactive”. In the case of `Cc1ccc(/C=N/NC(=O)C2CCN(Cc3ccc(F)cc3Cl)CC2)o1`, the Potency is reported as inconclusive: 4.47 µM [cytotoxic, partial curve, poor fit]. For `COc1ccc(OC)c(CN2CCC(CO)(CCOc3ccccc3)CC2)c1`, the Potency was inconclusive: 25.9 µM [cytotoxic, single point]. With `COc1cccc(NC(=O)Cn2c(=O)n(CCC(=O)NCc3ccccc3OC)c(=O)c3ccccc32)c1` the Potency was “inactive”. In the case of `COc1ccc(C)c2sc(N(Cc3cccnc3)C(=O)c3cccs3)nc12`, the Potency is reported as “inactive”. In the case of `O=C(CSc1nnc(NC(=O)c2ccc(S(=O)(=O)N3CCOCC3)cc2)s1)Nc1ccccc1C(F)(F)F`, the Potency is reported as “inactive”. In the case of `Cc1ccc(NC(=O)Cn2cc3c(n2)CCCC3)cc1Cl`, the Potency is reported as “inactive”. In the case of `O=C1OC(Oc2ccccc2)(c2ccccc2)c2ccccc21` (centres undefined), the Potency is reported as inconclusive: 20.6 µM [cytotoxic, single point]. For `Oc1ccc(N2CCN(c3nnnn3-c3ccccc3)CC2)cc1`, the Potency was inconclusive: 16.4 µM [cytotoxic, partial curve]. In the case of `COc1ccc(/C=C/C(=O)NCc2cnn(C)c2C)cc1COc1ccc(Br)cc1`, the Potency is reported as active: 14.6 µM. For `CC(C)(C)NC(=O)Nc1ccc2nccnc2c1`, the activity change, negative = cytotoxicity was inconclusive: -38.3%. For `CCOc1ccccc1OCCCC(=O)NNC(=O)c1nn(C)c(=O)c2ccccc12`, the Potency was active: 23.1 µM. For `CN(C)CCOc1ccc(/C(=C(/CCCl)c2ccccc2)c2ccccc2)cc1`, the Potency was inconclusive: 18.4 µM [cytotoxic, partial curve, poor fit]. With `CCc1ccc(C(=O)Cn2ccsc2=N)cc1` the Potency was active: 18.4 µM. In the case of `Cc1ccc(NC(=O)c2ccc(OCc3c(C)noc3C)cc2)cc1C`, the Potency is reported as inconclusive: 7.31 µM [cytotoxic, single point]. With `S=C(c1cn(CCOc2cccc3ccccc23)c2ccccc12)N1CCCC1` the Potency was inconclusive: 18.4 µM [cytotoxic, partial curve, poor fit]. For `Oc1c(C(c2ccco2)N2CCC3(CC2)OCCO3)sc2ncnn12` (centres undefined), the Potency was inconclusive: 13 µM [rising, partial curve]. With `Clc1cccc(CNCCCSc2nnnn2-c2ccccc2)c1` the Potency was “inactive”. With `Cc1sc2nc(CSCC(=O)NC(C)(C)C)[nH]c(=O)c2c1C` the Potency was “inactive”. With `Cc1cccc(C(c2sc3nc(-c4ccco4)nn3c2O)N2CCOCC2)c1` (centres undefined) the Potency was inconclusive: 20.6 µM [rising, partial curve]. With `C[C@H](CO)N1C[C@H](C)[C@@H](CN(C)C(=O)Nc2ccccc2F)Oc2cc(Br)ccc2S1(=O)=O` the Potency was “inactive”. In the case of `COCCN(C(=S)Nc1ccc(C)c(C)c1)C(C)c1ccco1` (centres undefined), the Potency is reported as inconclusive: 20.6 µM [cytotoxic, partial curve]. With `Clc1ccc2nc(-c3ccccc3)cn2c1` the Potency was “inactive”. In the case of `COC(=O)Nc1nc2ccc(SC(C)C)cc2[nH]1`, the Potency is reported as active: 1.03 µM. In the case of `Cc1cccc(N2CCN(C(=O)CCS(=O)(=O)c3ccc4c(c3)CC(=O)N4C)CC2C)c1` (centres undefined), the Potency is reported as “inactive”. With `Cc1ccc2cc(CN(Cc3ccco3)C(=S)NCC3CCCO3)c(=O)[nH]c2c1C` (centres undefined) the Potency was active: 4.11 µM. With `O=C(Nc1nncs1)C1CC(=O)N(CCc2ccc(F)cc2)C1` (centres undefined) the Potency was “inactive”. In the case of `CN(CC(=O)NNC(=O)CNC(=O)c1ccccc1Cl)S(=O)(=O)c1ccc(Cl)cc1`, the Potency is reported as “inactive”. For `CCOC(=O)C1CCCN(c2c(N3CCN(c4ccccn4)CC3)c(=O)c2=O)C1` (centres undefined), the Potency was “inactive”. For `COc1ccc(-c2csc3ncnc(Nc4ccccc4)c23)cc1`, the Potency was “inactive”. With `Cc1ccc(CSC2=NC(C)(C)Nc3ccccc32)c(C)c1` the Potency was “inactive”. In the case of `Cc1c(CCC(=O)O)c(=O)oc2cc3oc4c(c3cc12)CCCC4`, the Potency is reported as “inactive”. With `CCOc1ccc(N/C(N)=N/c2nc(CSc3nnc(C)s3)cc(=O)[nH]2)cc1` the Potency was inconclusive: 5.8 µM [cytotoxic, full curve]. With `Nc1nc(Sc2ccc(C(F)(F)F)cc2[N+](=O)[O-])n[nH]1` the Potency was “inactive”. For `COc1cc(OC)c(NS(=O)(=O)c2ccc3c(c2)NC(=O)CO3)cc1Cl`, the Potency was “inactive”. In the case of `Cn1c(=O)cc(OCCCC(=O)N2CCN(c3ccccc3)CC2)c2ccccc21`, the Potency is reported as inconclusive: 16.4 µM [cytotoxic, partial curve]. For `CC(=O)Oc1c(I)cc(I)cc1C(=O)Nc1ccc(Cl)cc1`, the Potency was active: 16.4 µM. With `CC1CCC(C(=O)NC(C(=O)NCc2cccnc2)C(C)C)CC1` (centres undefined) the Potency was active: 20.6 µM. In the case of `CCn1cnc2cc(NC(=O)COc3ccc(C)cc3)ccc21`, the Potency is reported as inconclusive: 6.51 µM [rising, partial curve]. For `CCN1CCCC1CNC(=O)c1ccc2c(c1)NC(=O)/C(=C\c1ccc(C)cc1)S2` (centres undefined), the Potency was “inactive”. In the case of `COC(=O)c1[nH]c2ccc(C)cc2c1NC(=O)CN1CCN(Cc2ccccc2)CC1`, the Potency is reported as inconclusive: 9.2 µM [cytotoxic, partial curve, poor fit]. For `O=C1c2ccccc2NC(c2ccc(F)cc2)N1Cc1ccco1` (centres undefined), the Potency was inconclusive: 29.1 µM [cytotoxic, single point]. With `Fc1cccc(Cc2c(-c3ccc(Cl)cc3)nc3ccc(Cl)cn23)c1` the Potency was inconclusive: 25.9 µM [cytotoxic, single point]. For `CCOC(=O)c1c(S(=O)(=O)N2CCCC(C(=O)Nc3cccc(CC)c3)C2)c(C)n(CC)c1C` (centres undefined), the Potency was “inactive”. In the case of `Cc1ccc(SCC(=O)OCC(=O)N(C)CC(=O)Nc2ccccc2Cl)cc1`, the Potency is reported as “inactive”. With `O=C(Nc1ccc(N2CCOCC2)c(Cl)c1)c1cccnc1` the Potency was inconclusive: 18.4 µM [rising, single point]. For `CCOC(=O)c1c(C)[nH]c(C)c1S(=O)(=O)NCC(=O)Nc1cccc(Cl)c1`, the Potency was inconclusive: 2.91 µM [cytotoxic, partial curve, poor fit]. In the case of `O=c1sc2ccccc2c(N2CCN(c3ccccc3)CC2)c1[N+](=O)[O-]`, the Potency is reported as inconclusive: 32.6 µM [rising, single point]. With `CCCn1c2ccc(C)cc2c2nnc(SCCN3CCOCC3)nc21` the Potency was inconclusive: 32.6 µM [cytotoxic, partial curve, poor fit]. For `CN(CC(=O)Nc1ccc(Cl)c(C(F)(F)F)c1)C(=O)C1CCCO1` (centres undefined), the activity change, negative = cytotoxicity was inconclusive: -35.1%. With `COc1ccc(NC(=O)/C(C#N)=C/c2cccnc2)c(OC)c1` the Potency was inconclusive: 25.9 µM [rising, single point]. In the case of `CC(C)C[C@H]1CN([C@@H](CC(C)C)CN2CCCC2CN2C(=S)NC[C@@H]2Cc2ccc(O)cc2)C(=S)N1CC1CCCCC1` (some centres undefined), the Potency is reported as active: 20.6 µM. With `CCOC(=O)C1=C(C)NC(C)=C(C(=O)OCC)C1C(=O)OCC(=O)NC` the Potency was “inactive”. With `CC(=O)Nc1ccc(NC(=O)C(C)OC(=O)c2ccc(OCc3c(C)noc3C)cc2)cc1` (centres undefined) the Potency was inconclusive: 32.6 µM [cytotoxic, partial curve, poor fit]. In the case of `N#Cc1cc([N+](=O)[O-])ccc1NC(=O)COC(=O)CC1CCCC1`, the Potency is reported as “inactive”.
% is scaled to controls: 0 for no effect and ±100 for the full control effect; potency is read from the fitted curve at half-maximal effect.
